# Experiment: general procedure: Fmoc solid-phase peptide synthesis; Rink AM Resin (loading 0.6 mmol/g); carbodiimide reagents (DCC preferred); EDCI/HOBt for solution-phase examples
substance,measurement,setting,value
(β-Admantan-1-yl)-Ala-D-Arg-Phe-Lys-NH2,final HPLC purity,"late stage modification step, 210 nm",95.4%
Phe-D-Arg-(2-Methyl)-Phe-Lys-NH2,final HPLC purity,"whole synthesis, HPLC, scale of the general procedure 10 g of resin",99.0%
"tert-butyl ((9S,12S,15R,18S)-9-carbamoyl-15-(3-guanidinopropyl)-3,11,14,17-tetraoxo-1,19-diphenyl-12-((tetrahydro-2H-pyran-4-yl)methyl)-2-oxa-4,10,13,16-tetraazanonadecan-18-yl)carbamate",final purity (method not given),"coupling step, HPLC",85%

# Reference: patent US12404300 (dated 2025)
